Assay results as given in PubChem BioAssay AID662 (National Center for Advancing Translational Sciences (NCATS), 2007).
The other results are listed elsewhere or left out. Further columns of the screen follow, without active or inactive calls. Compounds called inactive in the main read-out are mostly missing here. Potencies come from curve fits of mixed quality, noted in brackets.

Assay: Cell signaling CRE-BLA (Fsk stim)
Conditions: CHO CRE-bla reporter (cAMP response element driving beta-lactamase), forskolin EC10, beta-lactamase ratio; measured here: 460 nm blue channel
Text: NIH Molecular Libraries Screening Centers Network [MLSCN]
NIH Chemical Genomics Center [NCGC]
Assay Provider: Marshall W. Nirenberg, U.S. National heart lung & blood institute
Memories persist for different lengths of time, from seconds or minutes to a lifetime. There are two kinds of memory: short-term memory (STM) and long-term memory (LTM). STM lasts for minutes to hours, which maybe mediated by modifications of molecules involved in synaptic functions. LTM lasts for days or longer, and may be due to the formation of new synapses or restructuring of existing synapses. LTM, but not STM, requires gene transcription and synthesis of proteins. CREB (cyclic-AMP Responsive Element Binding Protein) is one of the candidates plays an important role for enhancement of some types of LTM. CREB, a family of transcription factors, regulates the transcription of genes containing cAMP Responsive Elements (CRE). CRE is a nucleotide sequence often found in the promoter regions of genes that are binding sites for CREB.
Using a beta-lactamase reporter-gene under control of cAMP responsive element, a cell-based assay [CellSensor(TM) CRE-bla CHO developed by Invitrogen Corp.] was used to measure forskolin-induced signaling. Library compounds were measured for their ability to modulate positively or negatively the action of EC10 NKH 477, a water soluble forskolin, on reporter gene activity. Compounds were screened in a titration series in 1536-well format. Positive and negative modulators were identified based on the AC50 values derived from the screening data.
NCGC Assay Protocol Summary
2000 cells/5uL in Opti-MEM medium containing 0.5% dialyzed FBS, 0.1 mM NEAA, 1 mM sodium pyruvate and 10 mM HEPES was dispensed into 1536-well plates and cells were cultured at 37 degrees Celsius overnight. […] And then the plates were incubated at 37 degrees Celsius for 3 hours. 1 uL of CCF4-dye mixture was added to each well. After incubated at room temperature for 2 hours the plates were measured on an EnVision plate reader at Excitation 405nm, Emission1=460nm and Emission 2=530nm. The %Activity was determined from the ratio of 460nm/530nm.
Keywords: NIH Roadmap, MLSCN, MLSMR, qHTS, NCGC, CRE, beta-lactamase reporter-gene assay.

Row | Compound | AC50
1 | c1ccc(N2CCN(Cc3ccsc3)CC2)nc1 | 0.00631 µM [falling, full curve]
2 | N#Cc1ccc(CSc2nnc(NC(=O)C3CCCO3)s2)cc1 (stereo not given) | 5.01 µM [falling, partial curve]
3 | Cc1ccc(SCC(=O)NCC(C)C)cc1 | 0.0631 µM [rising, full curve]
4 | O=C(N1CCOCC1)N1CCN(c2nc(-c3ccccc3)cs2)CC1 | 12.6 µM [rising, partial curve]
5 | O=C(NCc1nc(-c2ccccc2)no1)c1ccc(Br)o1 | 0.00316 µM [falling, full curve]
6 | O=C(O)C1CCN(C(=O)c2scc3c2OCCO3)CC1 | 2 µM [rising, partial curve]
7 | Cc1cnc(CNc2ncncc2-c2c(C)noc2C)cn1 | 20 µM [rising, single point]
8 | CCSc1nc2c(c(=O)[nH]1)C(c1cccnc1)C(C(=O)OC(C)C)=C(C)N2 (stereo not given) | 31.6 µM [rising, single point]
9 | CCOC(=O)CSc1cccc2cccnc12 | 12.6 µM [falling, partial curve]
10 | COc1ccc(CN2C(=O)CCC2(C)C(=O)NC2CCCCC2)c(OC)c1 (stereo not given) | 0.0398 µM [falling, full curve]
11 | C=CCn1c(SCc2nc3ccccc3nc2C)nnc1-c1ccoc1C | 15.8 µM [rising, partial curve]
12 | CC(C)CN(CC(C)C)S(=O)(=O)N1CCC(C(=O)NCc2cccs2)CC1 | 3.98 µM [rising, single point]
13 | O=c1c(O)c(-c2ccc(O)cc2)oc2cc(O)ccc12 | 25.1 µM [rising, partial curve]
14 | Cc1noc(NS(=O)(=O)c2ccc(N3Cc4ccccc4C3=O)cc2)c1C | 10 µM [rising, partial curve]
15 | NC(=O)CSc1nc2scc(-c3ccco3)c2c(=O)n1-c1ccccc1 | 15.8 µM [rising, partial curve]
16 | Cc1nn(C(=O)c2ccco2)c(C)c1CN1C(=O)c2ccccc2C1=O | 3.98 µM [rising, partial curve]
17 | CC(=O)Nc1ccc(S(=O)(=O)NCCN2CCOCC2)cc1 | 0.00316 µM [falling, full curve, poor fit]
18 | Clc1ccc(C2=Nn3c(nnc3-c3n[nH]c4c3CCC4)SC2)cc1 | 0.631 µM [rising, full curve]
19 | CC(C)=CC(=O)OCC(=O)NC(=O)NC(C)(C)C | 0.126 µM [falling, partial curve, poor fit]
20 | CCn1c(=N)c(C(=O)NCCCOC)cc2c(=O)n3cccc(C)c3nc21 | 1.58 µM [rising, full curve]
21 | CCN(C(=O)Cc1cccs1)c1nnc(-c2cccnc2)s1 | 10 µM [rising, single point]
22 | COc1ccccc1N1CCN(C(=O)CCNS(=O)(=O)c2ccc3c(c2)CCC(=O)N3)CC1 | 25.1 µM [falling, single point]
23 | O=C(O)c1cccc(NS(=O)(=O)c2ccc3nnn(O)c3c2)c1 | 0.00501 µM [falling, full curve, poor fit]
24 | CCC(C)NC(=O)c1cn(CC)c2ccc(S(=O)(=O)N(C)C)cc2c1=O (stereo not given) | 10 µM [rising, partial curve]

Row | Compound | AC50
25 | COc1cc(-c2nc3cnccn3c2Nc2ccccc2)ccc1O | 5.01 µM [rising, partial curve]
26 | Cc1ccc(S(=O)(=O)N(CC(=O)NCc2ccco2)Cc2ccc(F)cc2)cc1 | 10 µM [falling, single point]
27 | C1CCN(c2nc3nonc3nc2N2CCCC2)C1 | 15.8 µM [rising, single point]
28 | COc1cccc(-c2nc(N(C)Cc3ccco3)c3ccccc3n2)c1 | 3.16 µM [rising, full curve]
29 | COc1ccc2cc1Oc1ccc(cc1)C[C@H]1c3cc(c(OC)cc3CCN1C)Oc1c(OC)c(OC)cc3c1[C@@H](C2)N(C)CC3 | 2.51 µM [rising, full curve]
30 | O=C(c1ccc(C#Cc2ccccc2)o1)N1CCN(c2ccccn2)CC1 | 25.1 µM [falling, single point]
31 | COC(=O)c1c(=O)n(O)c2ccc(OC)cc2[n+]1[O-] | 12.6 µM [falling, partial curve, poor fit]
32 | Cc1noc(C)c1-c1nc(Nc2ccccc2)c2ccccc2n1 | 2.51 µM [rising, full curve]
33 | Cc1ccc(-c2csc3nnc(SCC(=O)NCc4ccc5c(c4)OCO5)n23)cc1 | 10 µM [rising, partial curve]
34 | CCOc1ccc2nc(SCC#N)c(C#N)cc2c1 | 3.98 µM [rising, partial curve]
35 | O=C(Nc1ccc(N2CCN(C(=O)c3ccccc3)CC2)cc1)c1cc2ccccc2o1 | 5.01 µM [falling, single point]
36 | COC(=O)C1CCN(c2nc3ccccc3nc2C(C#N)C(=O)OCC(C)C)CC1 (stereo not given) | 10 µM [rising, partial curve]
37 | CCCCNc1ncnc2c1cnn2-c1ccc(Cl)cc1 | 7.94 µM [rising, partial curve]
38 | COc1ccc(OCCSc2nnc3sc4ccccc4n23)cc1 | 0.794 µM [rising, full curve]
39 | O=c1ccnc(S/C=C/c2ccccc2)[nH]1 | 0.126 µM [falling, full curve]
40 | O=c1c(O)c(-c2cccc(O)c2)oc2ccccc12 | 12.6 µM [rising, single point]
41 | O=C(Sc1nnc(-c2ccccc2)o1)N1c2ccccc2Sc2ccccc21 | 1.26 µM [falling, partial curve]
42 | C=CCn1sc(N)c(C(=O)OCC)c1=S | 5.01 µM [falling, single point]
43 | O=c1ccc2cc(O)c(O)cc2o1 | 10 µM [rising, partial curve]
44 | COC(=O)c1[nH]c2cccc(Cl)c2c1NC(=O)CN1CCCCC1C (stereo not given) | 0.01 µM [falling, full curve]
45 | COc1ccc(C2=CC(c3ccc(OC)c(OC)c3)n3nnnc3N2)c(OC)c1 (stereo not given) | 12.6 µM [rising, partial curve]
46 | Cc1cccc(NC(=O)CCn2ccnc2C)c1 | 25.1 µM [falling, single point]
47 | Nc1nc(NCc2ccccc2)nc(-c2ccccc2)n1 | 10 µM [rising, partial curve]
48 | COc1ccc(-c2ccc(-c3noc(-c4ccc(OC)c(OC)c4)n3)c(OC)n2)cc1 | 10 µM [rising, single point]

Taken from above.
AC50 with `COc1ccc(C2=CC(c3ccc(OC)c(OC)c3)n3nnnc3N2)c(OC)c1` (stereo not given) is entered as 12.6 µM [rising, partial curve]
AC50 with `O=C(Sc1nnc(-c2ccccc2)o1)N1c2ccccc2Sc2ccccc21` is entered as 1.26 µM [falling, partial curve]

(list continues)

Row | Compound | AC50
49 | Cc1cccc(Cn2cnc3c(nnn3Cc3ccccc3F)c2=O)c1 | 10 µM [rising, partial curve]
50 | O=c1c(-c2ccc(F)cc2)nc2cnc(Oc3ccccc3)nc2n1Cc1cccs1 | 12.6 µM [rising, partial curve]
51 | COc1ccccc1NC(=O)CS(=O)(=O)c1cccc2nsnc12 | 3.16 µM [rising, single point]
52 | COc1ccc(/C=N/n2c(SC)nnc2-c2ccccc2)cc1C | 10 µM [rising, partial curve]
53 | O=C(O)CSc1nnc2c3ccccc3c3ccccc3c2n1 | 1 µM [falling, partial curve]
54 | CCNc1ncc2nc(-c3cc(F)cc(F)c3)c(=O)n(C[C@H]3CCCO3)c2n1 | 0.398 µM [rising, full curve]
55 | CCOC(=O)N1CCN(C(=O)C2CCN(S(=O)(=O)N(CC)CC)CC2)CC1 | 25.1 µM [rising, single point]
56 | CC1(C)Cc2cccc(OCC(=O)N3CCN(S(=O)(=O)c4ccc(F)cc4)CC3)c2O1 | 5.01 µM [falling, partial curve]
57 | C/C(=N\O)C(=O)NCC1CCNCC1 | 25.1 µM [falling, partial curve, poor fit]
58 | CCOc1ccc(C(C)=O)cc1Cn1nc(C(=O)O)c2ccccc2c1=O | 7.94 µM [rising, partial curve]
59 | Cn1c(-n2c(CCN3C(=O)c4ccccc4C3=O)nc3ccccc3c2=O)nc2ccccc21 | 1.58 µM [rising, full curve, poor fit]
60 | CCn1cc(CNC(=O)c2cc(Cl)ccc2OC)c(C)n1 | 1.58 µM [rising, partial curve]
61 | CCOC(=O)c1cnn(-c2ccccn2)c1N | 10 µM [falling, partial curve]
62 | Cc1nn(-c2ccccc2)c2sc(C(=O)O)cc12 | 3.98 µM [rising, full curve]
63 | O=C(CN(C1CCCCC1)S(=O)(=O)c1ccc(F)cc1)NC1CC1 | 0.00316 µM [falling, full curve, poor fit]
64 | Cc1cccc(N2CCN(C(=O)c3ccc(NC(=O)C4CCCO4)cc3)CC2C)c1 (stereo not given) | 0.251 µM [falling, partial curve, poor fit]
65 | CCOC(=O)c1ccc(N2C(=O)c3n[nH]c(C)c3C2c2ccc(OC)cc2OC)cc1 (stereo not given) | 10 µM [rising, single point]
66 | O=C1CSC(c2cn(-c3ccccc3)nc2-c2ccc3c(c2)OCCO3)N1CCN1CCOCC1 (stereo not given) | 7.94 µM [rising, partial curve]
67 | CC(=O)c1c(NCCc2ccccc2)cc(C)oc1=O | 12.6 µM [rising, single point]
68 | N#Cc1cccc(-c2nc(NCc3ccccc3)c3ccccc3n2)c1 | 5.01 µM [rising, single point]
69 | Cc1noc(C)c1-c1cc(Nc2ccc(F)cc2)ncn1 | 5.01 µM [rising, partial curve]
70 | COc1ccc(CNc2ncnc3ccc(-c4ccccc4OC)cc23)c(OC)c1 | 7.94 µM [rising, partial curve]
